# Measurements taken from ChEMBL document CHEMBL4819156, “Synthesis of novel 1H-Pyrazolo[3,4-b]pyridine derivatives as DYRK 1A/1B inhibitors” (Bioorg Med Chem Lett, 2021).
# By UniProt entry, the sequences of proteins in these tests, tags left out.
# UniProt Q9Y463, whole entry: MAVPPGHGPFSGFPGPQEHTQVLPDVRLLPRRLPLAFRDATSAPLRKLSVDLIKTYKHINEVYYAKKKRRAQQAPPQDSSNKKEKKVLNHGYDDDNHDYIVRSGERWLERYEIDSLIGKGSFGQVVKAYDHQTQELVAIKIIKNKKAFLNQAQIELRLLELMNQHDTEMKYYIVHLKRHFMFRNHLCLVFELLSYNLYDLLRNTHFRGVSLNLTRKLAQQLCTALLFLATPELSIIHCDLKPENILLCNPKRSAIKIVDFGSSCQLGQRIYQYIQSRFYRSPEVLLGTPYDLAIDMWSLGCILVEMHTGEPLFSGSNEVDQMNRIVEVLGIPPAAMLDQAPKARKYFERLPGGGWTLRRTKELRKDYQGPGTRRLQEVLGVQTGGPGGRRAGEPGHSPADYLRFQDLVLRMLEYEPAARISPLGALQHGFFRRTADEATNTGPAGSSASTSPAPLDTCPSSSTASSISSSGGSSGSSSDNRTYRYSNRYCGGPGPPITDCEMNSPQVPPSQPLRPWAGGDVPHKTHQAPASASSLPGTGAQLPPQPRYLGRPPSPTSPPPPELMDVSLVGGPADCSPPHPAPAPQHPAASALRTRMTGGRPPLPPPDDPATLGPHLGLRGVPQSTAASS
# Biological target: Dual specificity tyrosine-phosphorylation-regulated kinase 1B (Homo sapiens, UniProt Q9Y463)
# Experiment: Inhibition of DYRK1B (unknown origin)
structure (smiles),measurement,value
Oc1ccc(-c2n[nH]c3ncc(-c4ccc(O)c(O)c4)cc23)cc1,IC50,3 nM
